Screening data

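A cell-based FRET test of anthrax lethal toxin entry, tracked through the 460 nm emission signal; the cell line is not named here. Each compound was tested as a concentration series from about 0.0005 to 40 µM. The number is the fitted AC50 of the 460 nm signal alone; lower values mean a more potent effect. A falling signal goes with compounds filed as inhibitors or cytotoxic, a rising one with activators or fluorescent compounds (inferred from the filed classes).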

Values are in µM. Common to all entries: measured here: 460 nm channel. Part of the compounds only, not a random draw; the main read-out is not listed here. A potency from a partial, single-point or poor curve is only a rough figure. The first word of each remark tells which way the curve ran; it can be opposite to the aim of the assay.

structure	AC50 (µM)	curve as filed
CC(CCc1ccco1)NC(=O)c1cc2c(-c3ccccc3F)nn(C)c2s1 (centres unmarked)	5.012	falling, partial curve
CN1[C@@H]2CC[C@H]1CC(OC(=O)c1cc(Cl)cc(Cl)c1)C2 (some centres unmarked)	15.85	falling, partial curve
CC1=CC(C)(C)Nc2ccc(OC(=O)c3ccco3)cc21	3.162	rising, partial curve
O=C1Nc2cc(C(=O)N3CCOCC3)ccc2SC1N1CCOCC1 (centres unmarked)	10	falling, partial curve
Cc1cc(NC(=O)c2cccc(COc3ccc(Br)cc3)c2)no1	3.981	falling, full curve
BrCC(Br)C1CCC(Br)C(Br)C1 (centres unmarked)	19.95	falling, partial curve
CCn1c(=O)c(C(=O)CN2CCOCC2)c(N)n(Cc2ccccc2)c1=O	5.012	rising, single point
O=C(NCCc1ccc2c(c1)OCCO2)c1cc2ccccc2o1	10	falling, partial curve
Cn1c(=O)n(Cc2ccccc2F)c2ccccc21	3.981	falling, full curve
Cc1ccc(C2/C(=C(\O)c3c(C)nc4ccccn34)C(=O)C(=O)N2CCCN(C)C)o1 (centres unmarked)	31.62	rising, single point
COc1ccccc1NC(=O)C1=C(C)Nc2nnnn2C1c1cc(Br)ccc1OC (centres unmarked)	3.162	rising, full curve, poor fit
CCn1c(SCC(=O)Nc2cccc(NC(=O)c3ccco3)c2)nnc1-c1cccs1	3.981	rising, full curve
Cc1ccc(S(=O)(=O)Oc2cc(N)c3c(n2)CCC3)cc1	5.012	rising, single point
CCOC(=O)c1nc2sc3c(c2c(=O)[nH]1)CCCC3	25.12	rising, single point
Ic1ccc(N2CCN(Cc3c[nH]c4ncccc34)CC2)cc1	12.59	falling, partial curve, poor fit
CC(C)Oc1ccc(NC(N)=O)cc1	0.003981	rising, full curve, poor fit
N#C/C(=C\c1ccc[nH]1)Sc1nc2ccccc2s1	10	falling, single point
Cc1ccc(C)c(N2CCN(C(=O)c3cc4sccc4n3C)CC2)c1	19.95	falling, partial curve, poor fit
CCn1c2ccccc2c2cc(NC(=O)Cc3ccc(S(=O)(=O)N4CCOCC4)s3)ccc21	31.62	falling, single point
O=C1C(Cl)=C(NC2CCc3ccccc32)C(=O)c2ncccc21 (centres unmarked)	3.981	rising, single point
O=C1C2C3CCCC3=C3CCCC3C2C(=O)N1c1ccccc1 (centres unmarked)	25.12	falling, partial curve, poor fit
COc1nnc(-c2ccc(C(=O)N3C[C@@H]4C[C@H](C3)c3cccc(=O)n3C4)cc2)c2ccccc12	1.995	falling, partial curve
COC(=O)Nc1nc2ccc(C(=O)c3ccccc3)cc2[nH]1	0.3981	falling, full curve, poor fit
CN(C)C(=O)c1ccc(-c2nc(Nc3ccccc3)c3ccccc3n2)cc1	10	falling, partial curve
O=C(Nc1ccc2ccccc2c1)[C@@H]1C[C@H]1[C@@H](NP(=O)(c1ccccc1)c1ccccc1)c1ccccc1	31.62	falling, single point
O=C(CCCCCN1C(=O)CCC1=O)NCc1ccccc1	10	falling, partial curve, poor fit
O=c1c(-c2ccccc2)nc2cnc(Oc3ccccc3)nc2n1Cc1cccs1	15.85	falling, partial curve
CC(=O)Nc1ccc(S(=O)(=O)Nc2cccc(NC(=O)C(C)(C)C)c2)cc1	1.259	falling, full curve, poor fit
COc1ccc(-c2ccc(SCC(=O)Nc3cc(C)on3)nn2)cc1OC	31.62	rising, single point
CSc1nc(N2CCOCC2)c2ccccc2n1	1	rising, partial curve, poor fit
N#CCCn1c(=O)c(CCc2ccccc2)nc2cnc(Nc3ccccc3)nc21	12.59	rising, partial curve
O=C(Nc1ccc(Cl)cn1)c1cccc(F)c1	19.95	falling, single point
Cc1ccc(C)c(S(=O)(=O)c2c(N)n(/N=C/c3ccco3)c3nc4ccccc4nc23)c1	3.162	rising, partial curve, poor fit
O=C(N/N=C1/C[C@@H](O)[C@@H](O)[C@@H]2[C@@H]3C(=O)N(Cc4ccc5c(c4)OCO5)C(=O)[C@H]3CC[C@H]12)OCc1ccccc1	0.7943	falling, single point
C=CCn1c(C)cc(C(=O)CSc2nnc(Cc3ccccc3)o2)c1C	0.01	rising, full curve, poor fit
COc1ccccc1NC(=O)C(C)NS(=O)(=O)c1ccc(F)cc1 (centres unmarked)	0.03162	falling, full curve
CCOc1ccc(Oc2nc(Nc3ccc(C)cc3)nc(N(C)C)n2)nn1	5.012	falling, single point
COc1ccc(-c2noc(C3CCCN(S(=O)(=O)c4cccc(Cl)c4)C3)n2)cc1OC (centres unmarked)	10	falling, partial curve
CC(=O)CC1OC(=O)C(Br)=C1NCc1ccccc1 (centres unmarked)	1.995	falling, partial curve
CN1CCN(c2ncc3nc(-c4ccccc4)c(=O)n(CCc4ccccc4)c3n2)CC1	3.981	rising, full curve
O=C(NCCN1CCCCCC1)c1ccc(CS(=O)(=O)c2ccc(Br)cc2)o1	0.631	falling, full curve, poor fit
CCOC(=O)c1c(N)sc(C(=O)N2CCCCCC2)c1C	31.62	falling, single point
O=C(CSc1nnc(-c2ccc(Cl)cc2)n1Cc1ccco1)Nc1ccc2c(c1)OCCO2	12.59	falling, partial curve

For reference, 5 entries once more:

{"structure": "COc1ccc(-c2noc(C3CCCN(S(=O)(=O)c4cccc(Cl)c4)C3)n2)cc1OC", "stereo": "centres unmarked", "AC50 (µM)": "10", "curve as filed": "falling, partial curve"}
{"structure": "O=c1c(-c2ccccc2)nc2cnc(Oc3ccccc3)nc2n1Cc1cccs1", "AC50 (µM)": "15.85", "curve as filed": "falling, partial curve"}
{"structure": "COc1nnc(-c2ccc(C(=O)N3C[C@@H]4C[C@H](C3)c3cccc(=O)n3C4)cc2)c2ccccc12", "AC50 (µM)": "1.995", "curve as filed": "falling, partial curve"}
{"structure": "O=C1C(Cl)=C(NC2CCc3ccccc32)C(=O)c2ncccc21", "stereo": "centres unmarked", "AC50 (µM)": "3.981", "curve as filed": "rising, single point"}
{"structure": "N#C/C(=C\\c1ccc[nH]1)Sc1nc2ccccc2s1", "AC50 (µM)": "10", "curve as filed": "falling, single point"}

Source: PubChem BioAssay AID912 (NCATS, 2007).